Assay results reported in patent publication US20240174748A1 (INNATE PHARMA, published 2024).
No constants are given. Whether binding was seen depends on the method and setting. Some results given as binding are weak or reduced against the parent protein; the word gives no strength.

Amino acid sequences for entries named in this document (tags omitted). A change or cut given only in a name is not applied to a line headed by its entry.
UniProt P55899: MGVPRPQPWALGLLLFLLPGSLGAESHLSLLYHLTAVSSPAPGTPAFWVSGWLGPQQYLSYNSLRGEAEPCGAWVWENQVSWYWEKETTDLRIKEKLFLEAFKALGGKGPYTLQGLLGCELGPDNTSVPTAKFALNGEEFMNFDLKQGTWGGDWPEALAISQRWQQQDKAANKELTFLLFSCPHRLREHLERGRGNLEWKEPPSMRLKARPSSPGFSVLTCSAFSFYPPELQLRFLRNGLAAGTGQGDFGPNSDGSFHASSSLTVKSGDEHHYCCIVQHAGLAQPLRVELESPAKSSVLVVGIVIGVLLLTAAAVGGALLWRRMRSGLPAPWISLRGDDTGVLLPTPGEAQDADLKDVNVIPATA
UniProt P61769: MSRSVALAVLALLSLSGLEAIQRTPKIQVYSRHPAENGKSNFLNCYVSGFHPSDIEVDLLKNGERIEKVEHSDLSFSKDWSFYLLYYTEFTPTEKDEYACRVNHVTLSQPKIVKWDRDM
UniProt O76036: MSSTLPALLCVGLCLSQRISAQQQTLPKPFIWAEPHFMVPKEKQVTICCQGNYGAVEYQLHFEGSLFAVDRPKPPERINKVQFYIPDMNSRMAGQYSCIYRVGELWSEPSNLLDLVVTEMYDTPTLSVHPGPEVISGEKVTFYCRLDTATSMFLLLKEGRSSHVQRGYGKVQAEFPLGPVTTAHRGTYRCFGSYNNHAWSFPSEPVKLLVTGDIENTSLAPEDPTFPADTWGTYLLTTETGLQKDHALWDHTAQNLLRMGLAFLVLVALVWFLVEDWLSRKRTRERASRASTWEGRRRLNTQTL

Experiments:
[1] = target: Human FcRn (recombinant) (human) (UniProt P55899+P61769); assay: SPR, human FcRn immobilized on CM5
[2] = target: Human NKp46 recombinant protein (human) (UniProt O76036); assay: SPR, bispecific captured on Protein-A chip

binding [1]	binding [2]	Binder
binds	binds	CD19-F11-NKp46-3 (bispecific antibody) chain 1: DIQLTQSPASLAVSLGQRATISCKASQSVDYDGDSYLNWYQQIPGQPPKLLIYDASNLVSGIPPRFSGSGSGTDFTLNIHPVEKVDAATYHCQQSTEDPWTFGGGTKLEIKGGGGSGGGGSGGGGSQVQLQQSGAELVRPGSSVKISCKASGYAFSSYWMNWVKQRPGQGLEWIGQIWPGDGDTNYNGKFKGKATLTADESSSTAYMQLSSLASEDSAVYFCARRETTTVGRYYYAMDYWGQGTTVTVSSGGGSSAPELLGGPSVFLFPPKPKDTLMISRTPEVTCVVVDVSHEDPEVKFNWYVDGVEVHNAKTKPREEQYSSTYRVVSVLTVLHQDWLNGKEYKCKVSNKALPAPIEKTISKAKGQPREPQVYTLPPSREEMTKNQVSLTCLVKGFYPSDIAVEWESNGQPENNYKTTPPVLDSDGSFFLYSKLTVDKSRWQQGNVFSCSVMHEALHNHYTQKSLSLSPGGGGGSGGGGSGGGGSGQPREPQVYTLPPSREEMTKNQVSLTCLVKGFYPSDIAVEWESNGQPENNYKTTPPVLDSDGSFFLYSKLTVDKSRWQQGNVFSCSVMHEALHNHYTQKSLSLSPGSTGSEVQLQQSGPELVKPGASVKISCKTSGYTFTEYTMHWVKQSHGKSLEWIGGISPNIGGTSYNQKFKGKATLTVDKSSSTAYMELRSLTSEDSAVYYCARRGGSFDYWGQGTTLTVSSRTVAAPSVFIFPPSDEQLKSGTASVVCLLNNFYPREAKVQWKVDNALQSGNSQESVTEQDSKDSTYSLSSTLTLSKADYEKHKVYACEVTHQGLSSPVTKSFNRGEC chain 2: DIVMTQSPATLSVTPGDRVSLSCRASQSISDYLHWYQQKSHESPRLLIKYASQSISGIPSRFSGSGSGSDFTLSINSVEPEDVGVYYCQNGHSFPLTFGAGTKLELKASTKGPSVFPLAPSSKSTSGGTAALGCLVKDYFPEPVTVSWNSGALTSGVHTFPAVLQSSGLYSLSSVVTVPSSSLGTQTYICNVNHKPSNTKVDKRVEPKSCDKTH
binds		CD19-F4-NKp46-3 (bispecific antibody) DIQLTQSPASLAVSLGQRATISCKASQSVDYDGDSYLNWYQQIPGQPPKLLIYDASNLVSGIPPRFSGSGSGTDFTLNIHPVEKVDAATYHCQQSTEDPWTFGGGTKLEIKGGGGSGGGGSGGGGSQVQLQQSGAELVRPGSSVKISCKASGYAFSSYWMNWVKQRPGQGLEWIGQIWPGDGDTNYNGKFKGKATLTADESSSTAYMQLSSLASEDSAVYFCARRETTTVGRYYYAMDYWGQGTTVTVSSGGGSSAPELLGGPSVFLFPPKPKDTLMISRTPEVTCVVVDVSHEDPEVKFNWYVDGVEVHNAKTKPREEQYSSTYRVVSVLTVLHQDWLNGKEYKCKVSNKALPAPIEKTISKAKGQPREPQVYTLPPSREEMTKNQVSLTCLVKGFYPSDIAVEWESNGQPENNYKTTPPVLDSDGSFFLYSKLTVDKSRWQQGNVFSCSVMHEALHNHYTQKSLSLSPGGGGGSGGGGSGGGGSGQPREPQVYTLPPSREEMTKNQVSLTCLVKGFYPSDIAVEWESNGQPENNYKTTPPVLDSDGSFFLYSKLTVDKSRWQQGNVFSCSVMHEALHNHYTQKSLSLSPGSTGSEVQLQQSGPELVKPGASVKISCKTSGYTFTEYTMHWVKQSHGKSLEWIGGISPNIGGTSYNQKFKGKATLTVDKSSSTAYMELRSLTSEDSAVYYCARRGGSFDYWGQGTTLTVSSVEGGSGGSGGSGGSGGVDDIVMTQSPATLSVTPGDRVSLSCRASQSISDYLHWYQQKSHESPRLLIKYASQSISGIPSRFSGSGSGSDFTLSINSVEPEDVGVYYCQNGHSFPLTFGAGTKLELK
